Results published in publication PMC4895691, “Suppressor of IKKɛ is an essential negative regulator of pathological cardiac hypertrophy” (Nature Communications, 2016).
No constants are given. Whether binding was seen depends on the method and setting. Binding seen in cells or lysates may run through a third protein. Binding calls can cover weak binding; strength is not graded here.

Biological target: T1, Tbk1, endogenous in neonatal rat cardiomyocytes (rat (endogenous in neonatal rat cardiomyocytes)) (UniProt D4A7D3)
T1 sequence: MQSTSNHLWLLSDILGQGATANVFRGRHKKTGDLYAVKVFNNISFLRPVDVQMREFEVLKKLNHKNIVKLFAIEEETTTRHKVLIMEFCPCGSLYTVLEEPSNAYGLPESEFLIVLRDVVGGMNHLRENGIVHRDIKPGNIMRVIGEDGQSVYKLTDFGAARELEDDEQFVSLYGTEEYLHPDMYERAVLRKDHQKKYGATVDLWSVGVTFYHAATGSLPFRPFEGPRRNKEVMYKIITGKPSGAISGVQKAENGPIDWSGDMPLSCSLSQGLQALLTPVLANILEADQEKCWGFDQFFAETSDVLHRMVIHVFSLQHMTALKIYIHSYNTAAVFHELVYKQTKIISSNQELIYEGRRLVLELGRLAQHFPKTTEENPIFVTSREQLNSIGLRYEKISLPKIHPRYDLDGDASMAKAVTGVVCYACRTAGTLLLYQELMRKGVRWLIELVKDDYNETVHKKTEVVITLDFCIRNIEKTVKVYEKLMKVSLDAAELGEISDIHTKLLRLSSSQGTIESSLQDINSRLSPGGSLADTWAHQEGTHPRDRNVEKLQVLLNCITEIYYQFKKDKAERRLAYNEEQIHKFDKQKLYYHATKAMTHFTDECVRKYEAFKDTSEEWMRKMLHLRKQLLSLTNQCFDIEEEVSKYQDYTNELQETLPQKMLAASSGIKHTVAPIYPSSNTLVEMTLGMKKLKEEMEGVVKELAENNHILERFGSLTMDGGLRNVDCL
Assay: co-IP; cardiomyocytes with or without upregulation of Sike, with or without Ang II challenge; Tbk1 with Traf3

With “Traf3 in cardiomyocytes (rat (in neonatal rat cardiomyocytes))” the binding was “binds”.
